Data published in US20250205372A1 (The Research Foundation for The State University of New York, priority 2022, published 2025).

experiment: general procedure: Fmoc solid-phase peptide synthesis; TentaGel S-NH2 (0.26 mmol/g); Wang resin (0.8 mmol/g); 2-chlorotrityl chloride resin (1.0 mmol/g); PyBOP/DIEA; conditions: late stage modification step

Row | Substance | step yield
1 | 2,2′-(7-((11S,14S)-14-((1H-indol-3-yl)methyl)-11-(3-amino-3-oxopropyl)-19-((2,5-dioxopyrrolidin-1-yl)oxy)-17-(2-nitrophenyl)-2,9,12,15,19-pentaoxo-3,10,13,16-tetraazanonadecyl)-1,4,7-triazonane-1,4-diyl)diacetic acid | 60%
2 | Copper 2,2′-(7-((5S,8S)-5-((1H-indol-3-yl)methyl)-8-(3-amino-3-oxopropyl)-1-carboxy-2-(2-nitrophenyl)-4,7,10,17-tetraoxo-3,6,9,16-tetraazaoctadecan-18-yl)-1,4,7-triazonane-1,4-diyl)diacetate | 30%
3 | Di-tert-butyl2,2′-(7-((11S,14S)-14-((1-(tert-butoxycarbonyl)-1H-indol-3-yl)methyl)-19-((2,5-ioxopyrrolidin-1-yl)oxy)-17-(2-nitrophenyl)-2,9,12,15,19-pentaoxo-11-(3-oxo-3-(tritylamino)propyl)-3,10,13,16-tetraazanonadecyl)-1,4,7-triazonane-1,4-diyl)diacetate | 85%
4 | Gallium 2,2′-(7-((5S,8S)-5-((1H-indol-3-yl)methyl)-8-(3-amino-3-oxopropyl)-1-carboxy-2-(2-nitrophenyl)-4,7,10,17-tetraoxo-3,6,9,16-tetraazaoctadecan-18-yl)-1,4,7-triazonane-1,4-diyl)diacetate | 32%
